Results on 21 molecules are retold here after PubChem BioAssay AID248 (DTP/NCI, 2004).

The assay concerns L1210 leukemia ip in BDF1 mice, survival T/C. Description: NCI In Vivo Anticancer Drug Screen. Data for tumor model L1210 Leukemia (intraperitoneal) in B6D2F1 (BDF1) mice. As to conditions: T/C endpoint: mean survival time, higher T/C = longer survival.
The mark [1] stands for this setting: dose: 50.0 mg/kg/injection, schedule: Q01DX009 (ip), vehicle: saline.
[2] abbreviates: dose: 100.0 mg/kg/injection, schedule: Q01DX009 (ip), vehicle: saline.
[3] abbreviates: dose: 200.0 mg/kg/injection, schedule: Q04DX003 (ip), vehicle: Klucel (hydroxypropylcellulose) (HPC).
Where [4] appears, read: dose: 400.0 mg/kg/injection, schedule: Q04DX003 (ip), vehicle: Klucel (hydroxypropylcellulose) (HPC).
The mark [5] stands for this setting: dose: 400.0 mg/kg/injection, schedule: Q01DX009 (ip), vehicle: Klucel (hydroxypropylcellulose) (HPC).
Setting [6] is: dose: 100.0 mg/kg/injection, schedule: Q01DX009 (ip), vehicle: Klucel (hydroxypropylcellulose) (HPC).
The mark [7] stands for this setting: dose: 200.0 mg/kg/injection, schedule: Q01DX001 (ip), vehicle: carboxymethylcellulose (CMC).
[8] abbreviates: dose: 400.0 mg/kg/injection, schedule: Q01DX001 (ip), vehicle: carboxymethylcellulose (CMC).
[9] abbreviates: dose: 200.0 mg/kg/injection, schedule: Q01DX009 (ip), vehicle: Klucel (hydroxypropylcellulose) (HPC).
[10] abbreviates: dose: 400.0 mg/kg/injection, schedule: Q01DX009 (ip), vehicle: saline.
The mark [11] stands for this setting: dose: 200.0 mg/kg/injection, schedule: Q01DX009 (ip), vehicle: saline with Tween-80.
The mark [12] stands for this setting: dose: 400.0 mg/kg/injection, schedule: Q01DX001 (ip), vehicle: saline.

Structures are written as SMILES. The list shows only some results of the screen, not a fair sample: it is rich in T/C values a quarter to a half above the control, in often repeated tests (any T/C) and in doses without a T/C. Further doses and runs are listed elsewhere. T/C gives the treated animals as a percentage of the vehicle group. Some entries give survivors of the animals treated and no T/C: the source files T/C as zero there, which appears to mark a toxic dose or a test without result, not a measured value. Some doses without a T/C left all or most animals alive at the check, yet need not have been tolerated: survival well below the control is almost never listed, so the zero probably covers shortened survival too. Survivors were counted at the toxicity check, usually on the fifth day, unless a day is given; later deaths do not show. Schedule codes are those of the source, taken here to give the interval after Q, in days (D) or hours (H), and the number of doses after X. Some entries hold several experiments; their values stand side by side, smallest first. Some molecules as drawn cover several salts, stereoisomers or complexes of the source; a dose is that of the sample tested. For survival time, this PubChem deposit counts one and a half times the control or more as active, and values a quarter to a half above the control carry no call in these data; other NCI protocols may use other cut-offs.

As to `C1CCc2nnnn2CC1`, the survivor count is 1 of 6 under setting [1]; 1 of 6 (dose: 70.0 mg/kg/injection, schedule: Q01DX009 (ip), vehicle: saline); 0 of 6 under setting [2]; 0 of 6 and 1 of 4 (dose: 100.0 mg/kg/injection, schedule: Q04DX003 (ip), vehicle: saline); 0 of 6 (dose: 110.0 mg/kg/injection, schedule: Q01DX009 (ip), vehicle: saline); 0 of 6 (dose: 165.0 mg/kg/injection, schedule: Q01DX009 (ip), vehicle: saline). For the same molecule, the survivor count (dose: 200.0 mg/kg/injection, schedule: Q04DX003 (ip), vehicle: saline) is 0 of 4 and 0 of 6.
For `Cc1cc(CN)c(C)cc1CN`, under “dose: 400.0 mg/kg/injection, schedule: Q04DX003 (ip), vehicle: saline”, the survivor count was 0 of 6.
In the case of `O=C(CCN1CC1)NCCc1ccccc1`, the survivor count reads like this: (dose: 80.0 mg/kg/injection, schedule: Q04DX003 (ip), vehicle: Klucel (hydroxypropylcellulose) (HPC)) 6 of 6; under setting [3], 2 of 6; under setting [4], 0 of 6.
On to `CSc1nnc(-c2cccs2)s1`, for which the survivor count reads like this: under setting [3], 4 of 6; under setting [4], 0 of 6.
Turning to `O=C(Nc1cccc(Cl)c1Cl)Sc1ccccc1O`, under setting [5], the survivor count is on record as 2 of 6.
As to `O=C(N/N=C/c1c(Cl)cccc1Cl)C1CCCO1` (stereo not given), the survivor count is, setting by setting: (dose: 50.0 mg/kg/injection, schedule: Q01DX009 (ip), vehicle: Klucel (hydroxypropylcellulose) (HPC)) 3 of 6; under setting [6], 0 of 6; (dose: 100.0 mg/kg/injection, schedule: Q04DX002 (ip), vehicle: Klucel (hydroxypropylcellulose) (HPC)) 1 of 3; (dose: 200.0 mg/kg/injection, schedule: Q04DX002 (ip), vehicle: Klucel (hydroxypropylcellulose) (HPC)) 0 of 3; (dose: 400.0 mg/kg/injection, schedule: Q04DX002 (ip), vehicle: Klucel (hydroxypropylcellulose) (HPC)) 0 of 3.
Take `CCCCCCCCCCCC[N+](C)(C)Cc1cc(=O)c(O)co1`: the survivor count (dose: 100.0 mg/kg/injection, schedule: Q04DX002 (ip), vehicle: saline) is on record as 1 of 3; the survivor count (dose: 200.0 mg/kg/injection, schedule: Q04DX002 (ip), vehicle: saline) was 0 of 3; the survivor count (dose: 400.0 mg/kg/injection, schedule: Q04DX002 (ip), vehicle: saline) is 0 of 3.
Turning to `O=C(O)/C(F)=C/c1ccccc1`, the survivor count runs as follows: under setting [7], 0 of 4; under setting [8], 0 of 4.
On to `c1ccc2c(C3=NCCO3)cccc2c1`, for which the survivor count by setting is: under setting [6], 6 of 6; under setting [9], 6 of 6; under setting [5], 3 of 6.
As to `Nc1ccc(Cl)c(Cl)c1`, the survivor count is, setting by setting: (dose: 200.0 mg/kg/injection, schedule: Q01DX009 (ip), vehicle: alcohol) 0 of 6; (dose: 300.0 mg/kg/injection, schedule: Q01DX009 (ip), vehicle: alcohol) 0 of 6; under setting [8], 2 of 4; (dose: 400.0 mg/kg/injection, schedule: Q04DX003 (ip), vehicle: alcohol) 0 of 6.
For `CS(=O)(=O)Oc1nn2c(OS(C)(=O)=O)nnc2s1`, the T/C (dose: 20.0 mg/kg/injection, schedule: Q01DX001 (ip), vehicle: saline) is 132 % of control. The survivor count runs as follows: (dose: 30.0 mg/kg/injection, schedule: Q01DX001 (ip), vehicle: saline) 2 of 4; (dose: 40.0 mg/kg/injection, schedule: Q01DX001 (ip), vehicle: saline) 0 of 4; (dose: 50.0 mg/kg/injection, schedule: Q01DX001 (ip), vehicle: carboxymethylcellulose (CMC)) 0 of 4; (dose: 80.0 mg/kg/injection, schedule: Q01DX001 (ip), vehicle: saline) 0 of 4; (dose: 100.0 mg/kg/injection, schedule: Q01DX001 (ip), vehicle: carboxymethylcellulose (CMC)) 0 of 4; under setting [7], 0 of 4. In addition, under setting [8], the survivor count is reported as 0 of 4.
`CC[As](=O)(O)c1ccccc1`: the survivor count is 0 of 3 and 1 of 3 (dose: 25.0 mg/kg/injection, schedule: Q01DX009 (ip), vehicle: saline); 0 of 3 under setting [1]; 0 of 3 and 0 of 6 under setting [2]; 0 of 6 (dose: 200.0 mg/kg/injection, schedule: Q01DX009 (ip), vehicle: saline); 0 of 6 under setting [10].
For `CC(C)(CBr)COS(=O)(=O)c1ccc(Br)cc1`, the survivor count under setting [11] is 3 of 3.
For the molecule `O=P(CCCCCCP(=O)(N1CC1)N1CC1)(N1CC1)N1CC1`, the T/C (dose: 100.0 mg/kg/injection, schedule: Q01DX009 (ip), vehicle: carboxymethylcellulose (CMC)) is 138 and 148 % of control. The survivor count under setting [8] was 3 of 4.
As for `Clc1ccc(P(c2ccc(Cl)cc2)c2ccc(Cl)cc2)cc1`, the survivor count was 6 of 6 under setting [11] and 6 of 6 (dose: 400.0 mg/kg/injection, schedule: Q01DX009 (ip), vehicle: saline with Tween-80).
On to `COc1ccc(CCBr)cc1`, for which the survivor count was 6 of 6 under setting [6], 6 of 6 under setting [9] and 5 of 6 under setting [5].
Turning to `OCCOCC12c3ccccc3C3C(c4ccccc41)C32` (stereo not given), the survivor count (dose: 100.0 mg/kg/injection, schedule: Q04DX002 (ip), vehicle: saline with Tween-80) is recorded as 3 of 3.
As to `Cc1ccc(N(N)c2ccc(C)cc2)cc1`, the survivor count under setting [5] is 3 of 6.
For the molecule `O=Cc1ccc(OC(=O)Nc2ccccc2F)cc1`, under setting [10], the survivor count is 1 of 3.
`COC(=O)C1=C(NC(=O)Nc2ccc(Cl)cc2)OC(C)(C)C1c1ccc(Cl)cc1` (stereo not given): the survivor count reads like this: under setting [1], 6 of 6; (dose: 100.0 mg/kg/injection, schedule: Q01DX001 (ip), vehicle: saline) 5 of 6; (dose: 200.0 mg/kg/injection, schedule: Q01DX001 (ip), vehicle: saline) 6 of 6; under setting [12], 6 of 6.
Consider `CCN(CC)CCNc1ccccc1Cl`, for which the survivor count under setting [12] was 0 of 4.
